{"source": "PubChem BioAssay AID652272 (Drosophila RNAi Screening Center, 2013)", "test": "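Genome-wide knock-down search for components of Hedgehog signalling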 (primary screen)", "cell system": "Drosophila clone 8 (Cl8) cells", "reagent": "long dsRNA against Drosophila genes", "read-out": "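Firefly light from a Hedgehog-responsive ptc promoter reporter and Renilla reference light, both read on a plate reader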", "reading the numbers": "firefly Hh reporter signal: higher = more ptc reporter light; Renilla reference signal: higher = more Renilla control light", "active means": "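Hit when the z-score averaged over two replicates is under -2 or over +3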", "meaning of the calls": "active = hit: reporter lowered or raised; inactive = not a hit", "note": "The deposit covers about 21,000 reagents; this is an unselected part of those with a known target gene and a result. In the full data, 503 (2.4%) are marked active. 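Raw plate light values, not normalised; calls rest on replicate z-scores that were not deposited; hits include reporter decreases as well as increases.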 A plus sign joins genes that one reagent is predicted to hit. No sequences are given here. The record does not give: the amount of reagent, the time to read-out."}
{"Gene": "app (approximated)", "PubChem SID": "SID104188951", "firefly Hh reporter signal, replicate 1": 1.86e5, "firefly Hh reporter signal, replicate 2": 3.49e5, "Renilla reference signal, replicate 1": 4802, "Renilla reference signal, replicate 2": 13616, "activity call": "inactive"}
{"Gene": "app (approximated)", "PubChem SID": "SID104190038", "firefly Hh reporter signal, replicate 1": 77060, "firefly Hh reporter signal, replicate 2": 46333, "firefly Hh reporter signal, replicate 3": 61232, "Renilla reference signal, replicate 1": 4426, "Renilla reference signal, replicate 2": 5132, "activity call": "inactive"}
{"Gene": "app (approximated)", "PubChem SID": "SID104190318", "firefly Hh reporter signal, replicate 1": 48811, "firefly Hh reporter signal, replicate 2": 58980, "firefly Hh reporter signal, replicate 3": 75700, "Renilla reference signal, replicate 1": 5463, "Renilla reference signal, replicate 2": 5356, "activity call": "inactive"}
{"Gene": "spg (sponge)", "PubChem SID": "SID104194165", "firefly Hh reporter signal, replicate 1": 75456, "firefly Hh reporter signal, replicate 2": 96394, "Renilla reference signal, replicate 1": 2912, "Renilla reference signal, replicate 2": 3312, "activity call": "inactive"}
{"Gene": "spg (sponge)", "PubChem SID": "SID104194673", "firefly Hh reporter signal, replicate 1": 1.06e5, "firefly Hh reporter signal, replicate 2": 1.40e5, "Renilla reference signal, replicate 1": 3760, "Renilla reference signal, replicate 2": 4550, "activity call": "inactive"}
{"Gene": "CG3663", "PubChem SID": "SID104184194", "firefly Hh reporter signal, replicate 1": 1.32e5, "firefly Hh reporter signal, replicate 2": 92300, "Renilla reference signal, replicate 1": 5163, "Renilla reference signal, replicate 2": 3549, "activity call": "inactive"}
{"Gene": "MFS9 (Major Facilitator Superfamily Transporter 9)", "PubChem SID": "SID104195352", "firefly Hh reporter signal, replicate 1": 1.54e5, "firefly Hh reporter signal, replicate 2": 90080, "Renilla reference signal, replicate 1": 6005, "Renilla reference signal, replicate 2": 4220, "activity call": "inactive"}
{"Gene": "Nopp140", "PubChem SID": "SID104191664", "firefly Hh reporter signal, replicate 1": 1.14e5, "firefly Hh reporter signal, replicate 2": 1.62e5, "Renilla reference signal, replicate 1": 4765, "Renilla reference signal, replicate 2": 28809, "activity call": "inactive"}
{"Gene": "cnn (centrosomin)", "PubChem SID": "SID104185214", "firefly Hh reporter signal, replicate 1": 1.64e5, "firefly Hh reporter signal, replicate 2": 2.97e5, "Renilla reference signal, replicate 1": 4785, "Renilla reference signal, replicate 2": 12283, "activity call": "inactive"}
{"Gene": "cnn (centrosomin)", "PubChem SID": "SID104187388", "firefly Hh reporter signal, replicate 1": 73946, "firefly Hh reporter signal, replicate 2": 58704, "Renilla reference signal, replicate 1": 1814, "Renilla reference signal, replicate 2": 4433, "activity call": "inactive"}
{"Gene": "twin", "PubChem SID": "SID104195051", "firefly Hh reporter signal, replicate 1": 1.06e5, "firefly Hh reporter signal, replicate 2": 97672, "Renilla reference signal, replicate 1": 5269, "Renilla reference signal, replicate 2": 4176, "activity call": "inactive"}
{"Gene": "twin", "PubChem SID": "SID104195623", "firefly Hh reporter signal, replicate 1": 7.53e5, "firefly Hh reporter signal, replicate 2": 1.79e5, "Renilla reference signal, replicate 1": 44663, "Renilla reference signal, replicate 2": 5952, "activity call": "inactive"}
{"Gene": "CG34436", "PubChem SID": "SID104194956", "firefly Hh reporter signal, replicate 1": 96576, "firefly Hh reporter signal, replicate 2": 1.21e5, "Renilla reference signal, replicate 1": 3338, "Renilla reference signal, replicate 2": 3520, "activity call": "inactive"}
{"Gene": "CG6321", "PubChem SID": "SID104190415", "firefly Hh reporter signal, replicate 1": 1.22e5, "firefly Hh reporter signal, replicate 2": 88909, "Renilla reference signal, replicate 1": 6378, "Renilla reference signal, replicate 2": 3893, "activity call": "inactive"}
{"Gene": "CG7065", "PubChem SID": "SID104198212", "firefly Hh reporter signal, replicate 1": 1.49e5, "firefly Hh reporter signal, replicate 2": 82445, "Renilla reference signal, replicate 1": 2995, "Renilla reference signal, replicate 2": 1862, "activity call": "inactive"}
{"Gene": "lbm (late bloomer)", "PubChem SID": "SID104187435", "firefly Hh reporter signal, replicate 1": 75538, "firefly Hh reporter signal, replicate 2": 45848, "Renilla reference signal, replicate 1": 1929, "Renilla reference signal, replicate 2": 4361, "activity call": "inactive"}
{"Gene": "CG3894", "PubChem SID": "SID104181554", "firefly Hh reporter signal, replicate 1": 1.34e5, "firefly Hh reporter signal, replicate 2": 2.79e5, "Renilla reference signal, replicate 1": 3737, "Renilla reference signal, replicate 2": 11709, "activity call": "inactive"}
{"Gene": "CG3894", "PubChem SID": "SID104183804", "firefly Hh reporter signal, replicate 1": 1.95e5, "firefly Hh reporter signal, replicate 2": 2.27e5, "Renilla reference signal, replicate 1": 4124, "Renilla reference signal, replicate 2": 11016, "activity call": "inactive"}
{"Gene": "CG3894", "PubChem SID": "SID104184221", "firefly Hh reporter signal, replicate 1": 1.65e5, "firefly Hh reporter signal, replicate 2": 74915, "Renilla reference signal, replicate 1": 3964, "Renilla reference signal, replicate 2": 3645, "activity call": "inactive"}
{"Gene": "Prx6c + CG12896 + Prx6b", "PubChem SID": "SID104185940", "firefly Hh reporter signal, replicate 1": 1.12e5, "firefly Hh reporter signal, replicate 2": 56696, "Renilla reference signal, replicate 1": 2995, "Renilla reference signal, replicate 2": 5605, "activity call": "inactive"}
{"Gene": "CG13996", "PubChem SID": "SID104182120", "firefly Hh reporter signal, replicate 1": 1.39e5, "firefly Hh reporter signal, replicate 2": 60336, "Renilla reference signal, replicate 1": 3523, "Renilla reference signal, replicate 2": 5996, "activity call": "inactive"}
{"Gene": "CG13473", "PubChem SID": "SID104189809", "firefly Hh reporter signal, replicate 1": 84800, "firefly Hh reporter signal, replicate 2": 81515, "Renilla reference signal, replicate 1": 3760, "Renilla reference signal, replicate 2": 3168, "activity call": "inactive"}
{"Gene": "CG13601", "PubChem SID": "SID104194396", "firefly Hh reporter signal, replicate 1": 1.10e5, "firefly Hh reporter signal, replicate 2": 47313, "Renilla reference signal, replicate 1": 4808, "Renilla reference signal, replicate 2": 1251, "activity call": "inactive"}
{"Gene": "CG9628", "PubChem SID": "SID104190874", "firefly Hh reporter signal, replicate 1": 1.00e5, "firefly Hh reporter signal, replicate 2": 1.21e5, "Renilla reference signal, replicate 1": 4056, "Renilla reference signal, replicate 2": 4312, "activity call": "inactive"}
{"Gene": "CG13308", "PubChem SID": "SID104189771", "firefly Hh reporter signal, replicate 1": 64953, "firefly Hh reporter signal, replicate 2": 70472, "Renilla reference signal, replicate 1": 7419, "Renilla reference signal, replicate 2": 4547, "activity call": "inactive"}
{"Gene": "VhaAC45RP (VhaAC45-related protein)", "PubChem SID": "SID104195215", "firefly Hh reporter signal, replicate 1": 4.65e5, "firefly Hh reporter signal, replicate 2": 81067, "Renilla reference signal, replicate 1": 3420, "Renilla reference signal, replicate 2": 3420, "activity call": "inactive"}
{"Gene": "IscU (Iron-sulfur cluster assembly enzyme)", "PubChem SID": "SID104196364", "firefly Hh reporter signal, replicate 1": 60663, "firefly Hh reporter signal, replicate 2": 73411, "Renilla reference signal, replicate 1": 2192, "Renilla reference signal, replicate 2": 2226, "activity call": "inactive"}

In a second layout: results already given.
Gene | PubChem SID | firefly Hh reporter signal, replicate 1 | firefly Hh reporter signal, replicate 2 | firefly Hh reporter signal, replicate 3 | Renilla reference signal, replicate 1 | Renilla reference signal, replicate 2 | activity call
CG3663 | SID104184194 | 1.32e5 | 92300 | – | 5163 | 3549 | inactive
MFS9 (Major Facilitator Superfamily Transporter 9) | SID104195352 | 1.54e5 | 90080 | – | 6005 | 4220 | inactive
Nopp140 | SID104191664 | 1.14e5 | 1.62e5 | – | 4765 | 28809 | inactive
cnn (centrosomin) | SID104185214 | 1.64e5 | 2.97e5 | – | 4785 | 12283 | inactive
